The results in this text go back to paper PMC4058080.

Sequences of proteins named here, by UniProt entry; tags and fusion partners are left off. A change or cut given only in a name is not applied to a line headed by its entry. A line that says so, or that is headed by a name, gives the form on record, which may keep a tag or linker. Residues count along the entry.
UniProt O95166: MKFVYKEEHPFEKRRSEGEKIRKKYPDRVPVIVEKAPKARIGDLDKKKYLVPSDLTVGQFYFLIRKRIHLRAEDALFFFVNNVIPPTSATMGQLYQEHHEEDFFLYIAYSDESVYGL
HaloTag-fused GABARAP40-67: residues 40-67 of O95166

These are yes or no findings as the source states them, for the method shown. In cells and extracts the contact can be indirect. Some binding calls cover weakened binding; strength is not graded here.

Test [1] addresses myc-tagged GABARAP (GABAA receptor-associated protein) (human) (UniProt O95166). The experiment in a line: co-IP; MIN6 cells expressing myc-tagged GABARAP, low (5 mM) or high (30 mM) glucose; lysate in 20 mM HEPES-Na pH 7.5, 150 mM NaCl, 0.1% Triton X-100, 10% glycerol; anti-myc antibody or control rabbit IgG, protein G-Sepharose overnight at 4°C; blot with anti-PRIP1 and anti-PRIP2.

In test [2] the target is HaloTag-fused GABARAP40-67 (human) (UniProt O95166). The experiment in a line: co-IP; HaloTag-fused GABARAP40-67 precipitated, control IgG beside it; blot for PRIP1 (supplementary Fig. S5C).

B1: Phospholipase C-related catalytically inactive protein 2 (PRIP2) (protein, UniProt Q8K394 1-1128)
chain: MAECGRGAAGGALPTSPSPALGAKGALKAGAGEGGGGGGGGRLGHGRARYDSGGVSNGDCSLGVSGDEARTSPGRGPLGVALARTPSPAAGPVPRDSKPGGLPRRSSIIKDGTKQKRERKKTVSFSSMPTEKKISSASDCINSMVEGSELKKVRSNSRIYHRYFLLDADMQSLRWEPSKKDSEKAKIDIKSIKEVRTGKNTDIFRSNGISEQISEDCAFSVIYGENYESLDLVANSADVANIWVTGLRYLISYGKHTLDMLESSQDNMRTSWISQMFSEIDVDGLGHITLCHAVQCIRNLNPGLKTSKIELKFKELHKSKDKAGTEITKEEFIEVFHELCTRPEIYFLLVQFSSNKEFLDTKDLMMFLEAEQGVAHINEEISLEIIHKYEPSKEGQEKGWLSIDGFTNYLMSPDCYIFDPEHKKVCQDMKQPLSHYFINSSHNTYLIEDQFRGPSDITGYIRALKMGCRSVELDVWDGPDNEPVIYTGHTMTSQIVFRSVIDIINKYAFFASEYPLILCLENHCSIKQQKVMVQHMKKILGDKLYTTSPNMEESYLPSPDVLKGKILIKAKKLSSNCSGVEGDVTDEDEGAEMSQRMGKENVEQPNHVPVKRFQLCKELSELVSICKSVQFKEFQVSFQVQKYWEVCSFNEVLASKYANENPGDFVNYNKRFLARVFPSPMRIDSSNMNPQDFWKCGCQIVAMNFQTPGLMMDLNVGWFRQNGNCGYVLRPAIMREEVSFFSANTKDSVPGVSPQLLHIKIISGQNFPKPKGSGAKGDVVDPYVYVEIHGIPADCAEQRTKTVNQNGDAPIFDESFEFQINLPELAMVRFVVLDDDYIGDEFIGQYTIPFECLQTGYRHVPLQSLTGEVLAHASLFVHVAITNRRGGGKPHKRGLSVRKGKKSREYASLRTLWIKTVDEVFKNAQPPIRDATDLRENMQNAVVSFKELCGLSSVANLMQCMLAVSPRFLGPDNNPLVVLNLSEPYPTMELQAIVPEVLKKIVTTYDMMMQSLKALIENADAVYEKIVHCQKAAMEFHEHLHSIGTKEGLKERKLQKAVESFTWNITILKGQADLLKYAKNETLENLKQIHFAAVSCGLNKPGTENSEAQKPRRSLEAIPEKASDENGD
Regarding B1, the binding entry in test [1] was “binds”.

B2: Phospholipase C-related catalytically inactive protein 1 (PRIP1) (protein, UniProt Q3USB7 1-1096)
chain: MAEGAASREAPAPLDVAGGEDDPRAGADAASGDAPPPALGGRMRDRRSGVALPGAAGVPADSEAGLLEAARATPRRSSIIKDPSNQKCGGRKKTVSFSSMPSEKKISSAHDCISFMQAGCELKKVRPNSRIYNRFFTLDTDLQALRWEPSKKDLEKAKLDISAIKEIRLGKNTETFRNNGLADQICEDCAFSILHGENYESLDLVANSADVANIWVSGLRYLVSRSKQPLDFIEGNQNTPRFMWLKTVFEAADVDGNGIMLEDTSVELIKQLNPTLKESKIRLKFKEIQKSKEKLTTRVTEEEFCEAFCELCTRPEVYFLLVQISKNKEYLDANDLMLFLEAEQGVTHITEDMCLDIIRRYELSEDGRQKGFLAIDGFTQYLLSPECDIFDPEQKKVAQDMTQPLSHYYINASHNTYLIEDQFRGPADINGYVRALKMGCRSIELDVSDGPDNEPILCNRNNMAMHLSFRSVLEVINKFAFVASEYPLILCLGNHCSLPQQKVMAQQMKKVFGEKLYTEAPLSSESYLPSPEKLKNMIIVKGKKLPSESDLLEGEVTDEDEEAEMSRRMSGDYNGEQKHIWLCRELSDLVSICKSVQHRDFELSMKTQNYWEMCSFSETEASRIANEYPEDFVNYNKKFLSRVYPSAMRIDSSNLNPQDFWNCGCQIVAMNFQTPGPMMDLHTGWFLQNGGCGYVLRPSIMRDEVSYFSANTKGIVPGVSPLVLHIKIISGQNFPKPKGACAKGDVIDPYVCVEIHGIPADCCEQRTKTVQQNSDNPIFDETFEFQVNLPELTMVRFVILDDDYIGDEFIGQYTIPFECLQPGYRHVPLRSFVGDIMEHVTLFVHIAITNRSGGGKPQKRSLSVRMGKKVREYTMLRNIGLKTIDDIFKIAVHPLREAIDMRENMQNAIVSVKELCGLPPIASLKQCLLTLSSRLITSDSTPSVSLVMKDCFPYLEPLGAIPDVQKRMLAAYDLMIQESRVLIEMADTVQEKIVQCQKAGMEFHEELHNLGAKEGLKGRKLNKAIESFAWNITVLKGQGDLLKNAKNEAVENIKQIQLACLSCGLSKGPGGGSEAKGKRSLEAIEEKESSEENGKL
For B2, the binding result in test [2] and in test [1] was “binds” in each case.
